# Measurements published in the supplement of paper PMC8728848.
# The list shows a part of the results.
# B1: HA-00510 (Pseudomonas aeruginosa), Q02V39_PSEAB (protein)
# chain: GVPIVNIATPNGAGLSNNHFRDYNVGANGLILNNATGKTQGTQLGGIILGNPNLKGQAAQVILNQVTGGNRSTLAGYTEVAGQSARVIVANPHGITCQGCGFINTPRATLTTGKPIMDGQRLERFQVDGGDIVVEGAELNVGNLEQFDLITRSAKLNAKLYAKNLNIVTGRNDVQADSLQATPRAADGSEKPQLAIDSSALGGMYAGAIRLVGTEQGVGVKLAGDMAASGGDIRIDASGKLSLAQASSQGDLKIAAQAVELNGKTYAGGSAEIRSAEELVNRQS
# Experiments:
# Assay in all cases: glycan array binding signal (z-score within array); higher = stronger binding
# Details in all cases: glycan notation: IUPAC condensed, linker removed
# [1] = target: Gal(b1-4)GlcNAc(b1-3)Gal(b1-4)GlcNAc(b1-3)Gal(b1-4)GlcNAc
# How it was run: (§1)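 Arrays were curated from the Consortium for Functional Glycomics database, 3228 in total, and kept only where the protein sequence was available. Binding is expressed as a within-array Z-score. This score was averaged across arrays of the same protein sequence at different concentrations or buffers and across linkers, and negative values can be read as non-binding.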
# [2] = target: Gal(b1-4)GlcNAc(b1-3)Gal(b1-4)GlcNAc(b1-3)Gal(b1-4)GlcNAc(b1-2)Man(a1-3)[Gal(b1-4)GlcNAc(b1-3)Gal(b1-4)GlcNAc(b1-3)Gal(b1-4)GlcNAc(b1-2)Man(a1-6)]Man(b1-4)GlcNAc(b1-4)GlcNAc
# How it was run: as §1
# [3] = target: Gal(b1-4)GlcNAc(b1-3)Gal(b1-4)GlcNAc(b1-3)Gal(b1-4)GlcNAc(b1-2)Man(a1-3)[Gal(b1-4)GlcNAc(b1-3)Gal(b1-4)GlcNAc(b1-3)Gal(b1-4)GlcNAc(b1-2)Man(a1-6)]Man(b1-4)GlcNAc(b1-4)[Fuc(a1-6)]GlcNAc
# How it was run: as §1
# [4] = target: Gal(b1-4)GlcNAc(b1-3)Gal(b1-4)GlcNAc(b1-3)Gal(b1-4)GlcNAc(b1-2)[Gal(b1-4)GlcNAc(b1-3)Gal(b1-4)GlcNAc(b1-3)Gal(b1-4)GlcNAc(b1-6)]Man(a1-6)[Gal(b1-4)GlcNAc(b1-3)Gal(b1-4)GlcNAc(b1-3)Gal(b1-4)GlcNAc(b1-2)Man(a1-3)]Man(b1-4)GlcNAc(b1-4)[Fuc(a1-6)]GlcNAc
# How it was run: as §1
# [5] = target: Gal(b1-4)GlcNAc(b1-3)Gal(b1-4)GlcNAc(b1-3)Gal(b1-4)GlcNAc(b1-3)Gal(b1-4)GlcNAc(b1-2)Man(a1-3)[Gal(b1-4)GlcNAc(b1-3)Gal(b1-4)GlcNAc(b1-3)Gal(b1-4)GlcNAc(b1-3)Gal(b1-4)GlcNAc(b1-2)Man(a1-6)]Man(b1-4)GlcNAc(b1-4)GlcNAc
# How it was run: as §1
# [6] = target: Gal(b1-4)GlcNAc(b1-3)Gal(b1-4)GlcNAc(b1-3)Gal(b1-4)GlcNAc(b1-3)Gal(b1-4)GlcNAc(b1-2)Man(a1-3)[Gal(b1-4)GlcNAc(b1-3)Gal(b1-4)GlcNAc(b1-3)Gal(b1-4)GlcNAc(b1-3)Gal(b1-4)GlcNAc(b1-2)Man(a1-6)]Man(b1-4)GlcNAc(b1-4)[Fuc(a1-6)]GlcNAc
# How it was run: as §1
# [7] = target: Gal(b1-4)GlcNAc(b1-3)Gal(b1-4)GlcNAc(b1-3)Gal(b1-4)GlcNAc(b1-3)Gal(b1-4)GlcNAc(b1-2)[Gal(b1-4)GlcNAc(b1-3)Gal(b1-4)GlcNAc(b1-3)Gal(b1-4)GlcNAc(b1-3)Gal(b1-4)GlcNAc(b1-6)]Man(a1-6)[Gal(b1-4)GlcNAc(b1-3)Gal(b1-4)GlcNAc(b1-3)Gal(b1-4)GlcNAc(b1-3)Gal(b1-4)GlcNAc(b1-2)Man(a1-3)]Man(b1-4)GlcNAc(b1-4)[Fuc(a1-6)]GlcNAc
# How it was run: as §1
# [8] = target: Gal(b1-4)GlcNAc(b1-3)Gal(b1-4)GlcNAc(b1-3)Gal(b1-4)GlcNAc(b1-3)Gal(b1-4)GlcNAc(b1-3)Gal(b1-4)GlcNAc(b1-2)Man(a1-3)[Gal(b1-4)GlcNAc(b1-3)Gal(b1-4)GlcNAc(b1-3)Gal(b1-4)GlcNAc(b1-3)Gal(b1-4)GlcNAc(b1-3)Gal(b1-4)GlcNAc(b1-2)Man(a1-6)]Man(b1-4)GlcNAc(b1-4)GlcNAc
# How it was run: as §1
# [9] = target: Gal(b1-4)GlcNAc(b1-3)Gal(b1-4)GlcNAc(b1-3)Gal(b1-4)GlcNAc(b1-3)Gal(b1-4)GlcNAc(b1-3)Gal(b1-4)GlcNAc(b1-2)Man(a1-3)[Gal(b1-4)GlcNAc(b1-3)Gal(b1-4)GlcNAc(b1-3)Gal(b1-4)GlcNAc(b1-3)Gal(b1-4)GlcNAc(b1-3)Gal(b1-4)GlcNAc(b1-2)Man(a1-6)]Man(b1-4)GlcNAc(b1-4)[Fuc(a1-6)]GlcNAc
# How it was run: as §1
# [10] = target: Gal(b1-4)GlcNAc(b1-3)Gal(b1-4)GlcNAc(b1-3)Gal(b1-4)GlcNAc(b1-3)Gal(b1-4)GlcNAc(b1-3)Gal(b1-4)GlcNAc(b1-2)[Gal(b1-4)GlcNAc(b1-3)Gal(b1-4)GlcNAc(b1-3)Gal(b1-4)GlcNAc(b1-3)Gal(b1-4)GlcNAc(b1-3)Gal(b1-4)GlcNAc(b1-6)]Man(a1-6)[Gal(b1-4)GlcNAc(b1-3)Gal(b1-4)GlcNAc(b1-3)Gal(b1-4)GlcNAc(b1-3)Gal(b1-4)GlcNAc(b1-3)Gal(b1-4)GlcNAc(b1-2)Man(a1-3)]Man(b1-4)GlcNAc(b1-4)[Fuc(a1-6)]GlcNAc
# How it was run: as §1
# [11] = target: Gal(b1-4)GlcNAc(b1-3)Gal(b1-4)GlcNAc(b1-3)Gal(b1-4)GlcNAc(b1-3)Gal(b1-4)GlcNAc(b1-3)Gal(b1-4)GlcNAc(b1-3)Gal(b1-4)GlcNAc(b1-2)Man(a1-3)[Gal(b1-4)GlcNAc(b1-3)Gal(b1-4)GlcNAc(b1-3)Gal(b1-4)GlcNAc(b1-3)Gal(b1-4)GlcNAc(b1-3)Gal(b1-4)GlcNAc(b1-3)Gal(b1-4)GlcNAc(b1-2)Man(a1-6)]Man(b1-4)GlcNAc(b1-4)GlcNAc
# How it was run: as §1
# [12] = target: Gal(b1-4)GlcNAc(b1-3)Gal(b1-4)GlcNAc(b1-3)GalNAc
# How it was run: as §1
# [13] = target: Gal(b1-4)GlcNAc(b1-3)Gal(b1-4)GlcNAc(b1-3)[Gal(b1-4)GlcNAc(b1-3)Gal(b1-4)GlcNAc(b1-6)]GalNAc
# How it was run: as §1
# [14] = target: Gal(b1-4)GlcNAc(b1-3)Gal(b1-4)GlcNAc(b1-6)[Gal(b1-3)]GalNAc
# How it was run: as §1
# [15] = target: Gal(b1-4)GlcNAc(b1-3)Gal(b1-4)[Fuc(a1-3)]GlcNAc(b1-3)Gal(b1-4)[Fuc(a1-3)]GlcNAc
# How it was run: as §1
# [16] = target: Gal(b1-4)GlcNAc(b1-3)GalNAc
# How it was run: as §1
# [17] = target: Gal(b1-4)GlcNAc(b1-3)[Fuc(a1-3)GlcNAc(b1-6)]Gal(b1-4)Glc
# How it was run: as §1
# [18] = target: Gal(b1-4)GlcNAc(b1-3)[Gal(b1-4)GlcNAc(b1-6)]Gal(b1-4)GlcNAc
# How it was run: as §1
# [19] = target: Gal(b1-4)GlcNAc(b1-3)[GlcNAc(b1-6)]Gal(b1-4)GlcNAc
# How it was run: as §1
binder,measurement,setting,value
B1,glycan array binding signal (z-score),[1],-0.092
same,glycan array binding signal (z-score),[2],1.43
same,glycan array binding signal (z-score),[3],0.088
same,glycan array binding signal (z-score),[4],0.107
same,glycan array binding signal (z-score),[5],-0.943
same,glycan array binding signal (z-score),[6],-0.071
same,glycan array binding signal (z-score),[7],0.615
same,glycan array binding signal (z-score),[8],-0.151
same,glycan array binding signal (z-score),[9],-0.155
same,glycan array binding signal (z-score),[10],-0.029
same,glycan array binding signal (z-score),[11],-0.473
same,glycan array binding signal (z-score),[12],3.26
same,glycan array binding signal (z-score),[13],3.88
same,glycan array binding signal (z-score),[14],1.08
same,glycan array binding signal (z-score),[15],0.208
same,glycan array binding signal (z-score),[16],0.204
same,glycan array binding signal (z-score),[17],0.203
same,glycan array binding signal (z-score),[18],-0.05
same,glycan array binding signal (z-score),[19],-0.3

# For reference, part of the list above:
binder,measurement,setting,value
B1,glycan array binding signal (z-score),[7],0.615
same,glycan array binding signal (z-score),[8],-0.151
